Assay results: article PMC6372663
These are yes or no findings as the source states them, for the method shown. Some entries that bind do so weakly or less than the wild type.

Sequences of proteins named here, by UniProt entry; tags and fusion partners are left off.
UniProt P63279: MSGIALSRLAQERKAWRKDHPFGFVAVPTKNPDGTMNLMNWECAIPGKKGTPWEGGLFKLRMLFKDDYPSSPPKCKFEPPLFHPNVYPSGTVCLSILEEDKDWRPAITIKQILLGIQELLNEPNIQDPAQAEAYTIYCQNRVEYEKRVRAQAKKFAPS
UniProt Q93009: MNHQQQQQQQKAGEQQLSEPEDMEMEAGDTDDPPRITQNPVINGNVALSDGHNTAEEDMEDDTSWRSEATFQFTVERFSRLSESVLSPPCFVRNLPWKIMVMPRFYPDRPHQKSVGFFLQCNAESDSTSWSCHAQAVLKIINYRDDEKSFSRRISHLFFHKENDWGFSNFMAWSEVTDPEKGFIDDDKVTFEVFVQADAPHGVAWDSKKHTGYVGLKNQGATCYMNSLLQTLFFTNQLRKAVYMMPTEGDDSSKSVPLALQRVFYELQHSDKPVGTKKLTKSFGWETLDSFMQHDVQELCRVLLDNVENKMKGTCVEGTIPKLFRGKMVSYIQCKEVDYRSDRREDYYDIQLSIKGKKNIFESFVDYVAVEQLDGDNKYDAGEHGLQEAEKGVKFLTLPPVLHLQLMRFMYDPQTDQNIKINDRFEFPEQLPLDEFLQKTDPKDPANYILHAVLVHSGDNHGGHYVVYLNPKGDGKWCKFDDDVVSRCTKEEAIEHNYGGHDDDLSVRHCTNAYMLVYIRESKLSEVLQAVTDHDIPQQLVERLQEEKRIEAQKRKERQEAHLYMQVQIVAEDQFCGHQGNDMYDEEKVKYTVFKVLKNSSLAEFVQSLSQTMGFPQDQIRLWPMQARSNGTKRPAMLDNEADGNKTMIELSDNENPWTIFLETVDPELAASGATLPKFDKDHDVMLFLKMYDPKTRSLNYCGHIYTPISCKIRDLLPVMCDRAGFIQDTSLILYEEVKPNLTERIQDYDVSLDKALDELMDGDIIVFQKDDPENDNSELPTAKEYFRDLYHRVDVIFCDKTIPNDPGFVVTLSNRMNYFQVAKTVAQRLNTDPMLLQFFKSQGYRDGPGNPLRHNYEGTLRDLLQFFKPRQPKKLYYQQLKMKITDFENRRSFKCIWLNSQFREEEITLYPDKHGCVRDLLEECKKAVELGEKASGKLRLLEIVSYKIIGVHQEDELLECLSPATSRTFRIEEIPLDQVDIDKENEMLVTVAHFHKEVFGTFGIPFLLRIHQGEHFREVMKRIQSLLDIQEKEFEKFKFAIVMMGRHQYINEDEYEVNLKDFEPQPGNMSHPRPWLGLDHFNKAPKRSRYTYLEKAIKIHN

T1: PiT1/SLC20A1 (UniProt Q8WUM9)
T1 sequence: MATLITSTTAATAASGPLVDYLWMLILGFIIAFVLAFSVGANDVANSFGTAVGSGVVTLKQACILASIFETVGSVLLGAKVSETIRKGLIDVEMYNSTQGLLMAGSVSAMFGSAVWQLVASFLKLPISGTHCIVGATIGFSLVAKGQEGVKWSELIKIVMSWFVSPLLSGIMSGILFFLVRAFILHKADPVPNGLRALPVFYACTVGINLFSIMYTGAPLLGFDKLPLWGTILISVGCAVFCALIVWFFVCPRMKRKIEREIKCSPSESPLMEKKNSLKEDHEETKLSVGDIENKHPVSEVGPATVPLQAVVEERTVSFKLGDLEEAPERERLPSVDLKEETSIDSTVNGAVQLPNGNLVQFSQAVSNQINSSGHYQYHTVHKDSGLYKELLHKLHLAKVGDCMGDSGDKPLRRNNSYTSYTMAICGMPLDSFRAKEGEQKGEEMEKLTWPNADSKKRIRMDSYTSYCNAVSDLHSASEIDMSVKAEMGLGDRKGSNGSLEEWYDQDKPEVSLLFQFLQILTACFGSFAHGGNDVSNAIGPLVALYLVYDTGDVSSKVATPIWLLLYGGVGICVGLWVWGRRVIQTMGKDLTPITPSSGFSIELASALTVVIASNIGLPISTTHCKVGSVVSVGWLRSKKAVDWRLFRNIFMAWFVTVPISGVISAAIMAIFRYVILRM

B1: SIAH2 (enzyme, UniProt O43255 1-324)
chain: MSRPSSTGPSANKPCSKQPPPQPQHTPSPAAPPAAATISAAGPGSSAVPAAAAVISGPGGGGGAGPVSPQHHELTSLFECPVCFDYVLPPILQCQAGHLVCNQCRQKLSCCPTCRGALTPSIRNLAMEKVASAVLFPCKYATTGCSLTLHHTEKPEHEDICEYRPYSCPCPGASCKWQGSLEAVMSHLMHAHKSITTLQGEDIVFLATDINLPGAVDWVMMQSCFGHHFMLVLEKQEKYEGHQQFFAIVLLIGTRKQAENFAYRLELNGNRRRLTWEATPRSIHDGVAAAIMNSDCLVFDTAIAHLFADNGNLGINVTISTCCP

Target: T1, PiT1/SLC20A1
Experiment: two-hybrid; yeast two-hybrid screen 'performed by our group', told only in the discussion without citation or methods; bait, library and conditions not told

Q: For “UBC9 (from UniProt P63279 1-158) (enzyme)”, which binding is on record?
A: The binding was “binds”.

Q: “USP7 (from UniProt Q93009 1-1102) (enzyme)” was tested. Which binding did it give?
A: The binding was “binds”.

Q: Which binding does the source give for B1 here?
A: The binding was “binds”.
